Data taken from paper PMC5706798.
No constants are given. Whether binding was seen depends on the method and setting. Binding seen in cells or lysates may run through a third protein. Some binding calls cover weakened binding; strength is not graded here.

Target: PRPF8 (human (endogenous in U2OS)) (UniProt Q6P2Q9)
Assay: co-IP; endogenous proteins of U2OS cells treated with 10 Gy IR and 2 h at 37°C; lysed 3 h at 4°C in ELB buffer (50 mM HEPES, 250 mM NaCl, 5 mM EDTA, 0.1% IGEPAL) with phosSTOP and benzonase, sonicated; IP with antibodies against PRPF8, BRCA1 or control IgG, protein-G Dynabeads; immunoblot

B1: XAB2 (protein, UniProt Q9HCS7 1-855)
chain: MVVMARLSRPERPDLVFEEEDLPYEEEIMRNQFSVKCWLRYIEFKQGAPKPRLNQLYERALKLLPCSYKLWYRYLKARRAQVKHRCVTDPAYEDVNNCHERAFVFMHKMPRLWLDYCQFLMDQGRVTHTRRTFDRALRALPITQHSRIWPLYLRFLRSHPLPETAVRGYRRFLKLSPESAEEYIEYLKSSDRLDEAAQRLATVVNDERFVSKAGKSNYQLWHELCDLISQNPDKVQSLNVDAIIRGGLTRFTDQLGKLWCSLADYYIRSGHFEKARDVYEEAIRTVMTVRDFTQVFDSYAQFEESMIAAKMETASELGREEEDDVDLELRLARFEQLISRRPLLLNSVLLRQNPHHVHEWHKRVALHQGRPREIINTYTEAVQTVDPFKATGKPHTLWVAFAKFYEDNGQLDDARVILEKATKVNFKQVDDLASVWCQCGELELRHENYDEALRLLRKATALPARRAEYFDGSEPVQNRVYKSLKVWSMLADLEESLGTFQSTKAVYDRILDLRIATPQIVINYAMFLEEHKYFEESFKAYERGISLFKWPNVSDIWSTYLTKFIARYGGRKLERARDLFEQALDGCPPKYAKTLYLLYAQLEEEWGLARHAMAVYERATRAVEPAQQYDMFNIYIKRAAEIYGVTHTRGIYQKAIEVLSDEHAREMCLRFADMECKLGEIDRARAIYSFCSQICDPRTTGAFWQTWKDFEVRHGNEDTIKEMLRIRRSVQATYNTQVNFMASQMLKVSGSATGTVSDLAPGQSGMDDMKLLEQRAEQLAAEAERDQPLRAQSKILFVRSDASREELAELAQQVNPEEIQLGEDEDEDEMDLEPNEVRLEQQSVPAAVFGSLKED
binding: binds
